No constants are given. Whether binding was seen depends on the method and setting. Binding seen in cells or lysates may run through a third protein. Some binding calls cover weakened binding; strength is not graded here. Sequences can lack the tags named with a protein.
T1: mouse IL-2Rα (endogenous, OT-I CD8+ T cells) (mouse) (UniProt P01590)
T1 sequence (looked up): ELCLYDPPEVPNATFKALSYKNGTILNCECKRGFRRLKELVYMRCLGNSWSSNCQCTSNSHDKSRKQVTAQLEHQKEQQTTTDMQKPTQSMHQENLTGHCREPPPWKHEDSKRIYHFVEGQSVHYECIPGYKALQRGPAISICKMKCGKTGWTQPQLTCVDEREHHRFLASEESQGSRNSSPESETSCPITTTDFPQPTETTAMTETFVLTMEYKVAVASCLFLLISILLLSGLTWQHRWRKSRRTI

Amino acid sequences for entries named in this document (tags omitted). Residues count along the entry.
UniProt P01589, residues 22-272: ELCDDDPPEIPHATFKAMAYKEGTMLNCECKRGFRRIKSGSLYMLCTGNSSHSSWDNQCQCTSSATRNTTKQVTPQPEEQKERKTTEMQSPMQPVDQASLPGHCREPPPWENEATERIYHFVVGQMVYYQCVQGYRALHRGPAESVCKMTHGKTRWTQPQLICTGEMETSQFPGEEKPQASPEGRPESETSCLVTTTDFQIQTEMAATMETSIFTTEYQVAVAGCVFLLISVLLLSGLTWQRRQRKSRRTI


Legend:
[1] = target: T1, mouse IL-2Rα (endogenous, OT-I CD8+ T cells) (mouse); assay: anti-V5 co-immunoprecipitation and immunoblot, OT-I T cells
[2] = target: T1, mouse IL-2Rα (endogenous, OT-I CD8+ T cells) (mouse); assay: anti-V5 immunoprecipitation and LC-MS/MS (peptides and PSMs), OT-I T cells
[3] = target: Flag-IL-2Rα (human IL2RA in p3×Flag-CMV-7.1) (human) (UniProt P01589); assay: co-immunoprecipitation (anti-V5 or anti-Flag) and immunoblot, co-transfected 293T cells
[4] = target: Flag-IL-2Rα (human IL2RA in p3×Flag-CMV-7.1) (human) (UniProt P01589); assay: figure legend heading for the co-immunoprecipitation experiments of FIGS. 4A-4K

Row | binding [1] | binding [2] | binding [3] | binding [4] | Binder
1 | binds | binds |  |  | V5-tagged mouse Susd2 (receptor, not shown: small tags and cut ends) AGAQGSCSLRCGAQDGLCSCHPTCSGLGTCCEDFLDYCLEILPSSGSMMGGKDFVVQHLKWTDPTDGVICRFKESIQTLGYVDDFYQVHCISPLLYESGYIPFTISMDNGRSFPHAGTWLAAHPYKVSESEKSQLVNETHWQYYGTSDTRGNLNLTWDTSALPTPAVTIELWGYEETGKPYSGNWTSKWSYLYPLATNIPNTGFFTFTPKPASPQYQRWKVGALRISSSRNYPGEKDVRALWTNDHALAWHLGDDFRADSVAWARAQCLAWEALEDQLPNFLTELPDCPCTLAQARADSGRFFTDYGCDIEHGSVCTYHPGAVHCVRSVQASPRYGSGQQCCYTAAGTQLLTSDSTSGSTPDRGHDWGAPPYRTPPRVPGMSHWLYDVISFYYCCLWAPECPRYMKRRPSSDCRNYRPPRLASAFGDPHFVTFDGTSFSFSGNGEYVLLETTLSDLRVQGRAQPGRMPNGTQARGTGLTAVAVQEDNSDVIEVRLAGGSRVLEVLLNQKVLSFTEQNWMDLKGMFLSVAAQDKVSIMLSSGAGLEVGVQGPFLSVSILLPEKFLTHTRGLLGTLNNNPRDDFTLRNGQVLPLNASAQQVFQFGADWAVSNTSSLFTYDSWLLVYQFVYGPKHNPNFKPLFPDETTLSPSQTEDVARLCEGDRFCILDVMSTGSSSVGNATRIAHQLHQHRLKSLQPVVSCGWLPPPANGHKEGLRYLEGSVVRFSCNNGYSLVGPESSTCQADGKWSMPTPECQPGRSYTVLLSIIFGGLAIVALISIIYMMLHRRRKSNMTMWSSQP
2 |  |  | binds | binds | V5-SUSD2 (human SUSD2, V5-tagged) (receptor, not shown: small tags and cut ends) QESCSMRCGALDGPCSCHPTCSGLGTCCLDFRDFCLEILPYSGSMMGGKDFVVRHFKMSSPTDASVICRFKDSIQTLGHVDSSGQVHCVSPLLYESGRIPFTVSLDNGHSFPRAGTWLAVHPNKVSMMEKSELVNETRWQYYGTANTSGNLSLTWHVKSLPTQTITIELWGYEETGMPYSQEWTAKWSYLYPLATHIPNSGSFTFTPKPAPPSYQRWRVGALRIIDSKNYAGQKDVQALWTNDHALAWHLSDDFREDPVAWARTQCQAWEELEDQLPNFLEELPDCPCTLTQARADSGRFFTDYGCDMEQGSVCTYHPGAVHCVRSVQASLRYGSGQQCCYTADGTQLLTADSSGGSTPDRGHDWGAPPFRTPPRVPSMSHWLYDVLSFYYCCLWAPDCPRYMQRRPSNDCRNYRPPRLASAFGDPHFVTFDGTNFTFNGRGEYVLLEAALTDLRVQARAQPGTMSNGTETRGTGLTAVAVQEGNSDVVEVRLANRTGGLEVLLNQEVLSFTEQSWMDLKGMFLSVAAGDRVSIMLASGAGLEVSVQGPFLSVSVLLPEKFLTHTHGLLGTLNNDPTDDFTLHSGRVLPPGTSPQELFLFGANWTVHNASSLLTYDSWFLVHNFLYQPKHDPTFEPLFPSETTLNPSLAQEAAKLCGDDHFCNFDVAATGSLSTGTATRVAHQLHQRRMQSLQPVVSCGWLAPPPNGQKEGNRYLAGSTIYFHCDNGYSLAGAETSTCQADGTWSSPTPKCQPGRSYAVLLGIIFGGLAVVAAVALVYVLLRRRKGNTHVWGAQP
